# Results are given in words; binding and its absence hold for the method and conditions named. Binding seen in cells or lysates may run through a third protein. Some results given as binding are weak or reduced against the parent protein; the word gives no strength.
# By UniProt entry, the sequences of proteins in these tests, tags left out. Residues count along the entry.
# UniProt O00206, residues 657-839: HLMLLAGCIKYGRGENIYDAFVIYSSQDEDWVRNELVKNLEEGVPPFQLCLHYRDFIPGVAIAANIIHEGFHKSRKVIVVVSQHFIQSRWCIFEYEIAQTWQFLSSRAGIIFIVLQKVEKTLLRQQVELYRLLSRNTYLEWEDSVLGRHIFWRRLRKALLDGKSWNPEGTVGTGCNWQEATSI
# UniProt Q8IUC6: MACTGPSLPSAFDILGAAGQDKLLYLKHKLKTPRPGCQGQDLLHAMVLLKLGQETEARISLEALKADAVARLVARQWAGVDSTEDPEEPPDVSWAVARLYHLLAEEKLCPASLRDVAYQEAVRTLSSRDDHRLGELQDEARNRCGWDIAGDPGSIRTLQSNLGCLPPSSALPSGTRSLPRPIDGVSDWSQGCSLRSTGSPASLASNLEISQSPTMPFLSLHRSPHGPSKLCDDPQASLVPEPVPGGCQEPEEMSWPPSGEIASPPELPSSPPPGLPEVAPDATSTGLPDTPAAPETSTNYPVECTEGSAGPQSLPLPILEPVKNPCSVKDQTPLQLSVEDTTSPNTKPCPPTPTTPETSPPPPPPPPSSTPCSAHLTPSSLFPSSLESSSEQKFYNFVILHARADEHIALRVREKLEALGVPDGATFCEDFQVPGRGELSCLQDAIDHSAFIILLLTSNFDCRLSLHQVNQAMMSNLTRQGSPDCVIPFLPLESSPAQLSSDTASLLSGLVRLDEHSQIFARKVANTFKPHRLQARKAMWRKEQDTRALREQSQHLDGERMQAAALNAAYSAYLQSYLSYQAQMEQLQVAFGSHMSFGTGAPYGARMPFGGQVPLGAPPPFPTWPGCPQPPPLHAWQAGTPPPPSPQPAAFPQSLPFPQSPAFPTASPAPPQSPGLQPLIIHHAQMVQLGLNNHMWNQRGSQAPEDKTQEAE
# UniProt P58753: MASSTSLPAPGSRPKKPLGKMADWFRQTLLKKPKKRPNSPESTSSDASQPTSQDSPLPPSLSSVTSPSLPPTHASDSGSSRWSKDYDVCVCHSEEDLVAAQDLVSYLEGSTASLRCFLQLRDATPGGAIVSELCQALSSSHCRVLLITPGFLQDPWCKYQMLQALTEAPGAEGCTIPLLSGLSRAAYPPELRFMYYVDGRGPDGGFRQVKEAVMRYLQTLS
# UniProt Q86XR7: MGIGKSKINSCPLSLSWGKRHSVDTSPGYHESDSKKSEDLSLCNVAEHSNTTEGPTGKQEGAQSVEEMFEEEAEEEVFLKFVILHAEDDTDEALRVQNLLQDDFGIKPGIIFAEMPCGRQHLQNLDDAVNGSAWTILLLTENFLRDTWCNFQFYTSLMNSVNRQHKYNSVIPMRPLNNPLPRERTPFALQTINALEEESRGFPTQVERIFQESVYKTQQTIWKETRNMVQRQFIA
# UniProt Q99836: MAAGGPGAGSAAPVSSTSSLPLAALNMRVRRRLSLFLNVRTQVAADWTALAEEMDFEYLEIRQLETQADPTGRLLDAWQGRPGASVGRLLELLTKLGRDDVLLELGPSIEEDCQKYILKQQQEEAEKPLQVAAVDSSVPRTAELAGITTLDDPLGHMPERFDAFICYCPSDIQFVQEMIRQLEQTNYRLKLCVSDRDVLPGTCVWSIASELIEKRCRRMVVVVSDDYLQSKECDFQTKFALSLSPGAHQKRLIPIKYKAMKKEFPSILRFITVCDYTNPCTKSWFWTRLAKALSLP
# Biological target: GST-TLR4(TIR) (human) (UniProt O00206)
# Assay: pull-down; GST fusions as bait, co-expressed in YPH499 yeast with the two adaptors of a pair (mCherry-MyD88 plus TIRAP-GFP, or TRIF-mCherry plus TRAM-GFP); lysates in 10% glycerol, 50 mM Tris/HCl pH 7.5, 0.1% NP40, 150 mM NaCl, 5 mM EDTA; Glutathione Sepharose beads overnight at 4 °C; Western blot with anti-mCherry, anti-GFP, anti-GST
row,Substance,binding
1,TRIF-mCherry (from UniProt Q8IUC6 1-712),binds
2,TIRAP-GFP (from UniProt P58753 1-221),binds
3,TRAM-GFP (from UniProt Q86XR7 1-235),binds
4,mCherry-MyD88 (from UniProt Q99836 1-296),binds

# Biological target: myr-GST-TLR4(TIR) (human) (UniProt O00206)
# Assay: as above
row,Substance,binding
1,TRIF-mCherry (from UniProt Q8IUC6 1-712),binds
2,TIRAP-GFP (from UniProt P58753 1-221),binds
3,TRAM-GFP (from UniProt Q86XR7 1-235),binds
4,mCherry-MyD88 (from UniProt Q99836 1-296),binds

# — paper PMC8615643
